Test results taken from US7312212B2, “Aminopiperidine derivatives” (priority 2002, dated 2007).
Some results were stated once for a whole list of compounds, not compound by compound.

System: S. epidermidis CL7, S. aureus WCUH29, S. pneumoniae 1629, S. pyogenes CN10, H. influenzae ATCC49247, E. faecalis 2, E. faecium 8, M. catarrhalis Ravisio, E. …
Assay: MIC of test compounds against various organisms
Format: cell-based
Settings: versus all of these organisms (S. epidermidis CL7, S. aureus WCUH29, S. pneumoniae 1629, S. pyogenes CN10, H. influenzae ATCC49247, E. faecalis 2, E. faecium 8, M. catarrhalis Ravisio, E. coli 7623)
Text: The MIC (μg/ml) of test compounds against various organisms may be determined:
S. epidermidis CL7, S. aureus WCUH29, S. pneumoniae 1629, S. pyogenes CN10, H. influenzae ATCC49247, E. faecalis 2, E. faecium 8, M. catarrhalis Ravisio, E. coli 7623.

Compound	MIC [mg/L]
COc1ccc2nccc([C@@H](O)CN3CCC(NCc4ccc5c(n4)NC(=O)CS5)C(F)C3)c2n1 (single isomer, unassigned) [Example 23]	≤ 16
COc1ccc2nccc([C@@H](O)CN3CCC(NCc4nc5c(cc4Cl)SCC(=O)N5)C(F)C3)c2c1 (single isomer, unassigned) [Example 9]	≤ 2
COc1ccc2nccc([C@@H](O)CN3CCC(NCc4nc5c(cc4Cl)SCC(=O)N5)C(F)C3)c2c1 (single isomer, unassigned) [Example 8]	≤ 16
COc1ccc2nccc([C@@H](O)CN3CCC(NCc4ccc5c(n4)NC(=O)CS5)C(F)C3)c2n1 (single isomer, unassigned) [Example 22]	≤ 2
